Measured data: PubChem BioAssay AID624150 (Cancer Research UK Cambridge, 2012)
The whole screen tested 331 reagents; this is a part drawn at random. 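Each arm had three replicate z-scores, but only the first replicate is printed; higher values mean more differentiation marker per cell.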 Further read-outs or replicates are left out here.

Screen: 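Effect of silencing chromatin genes on per-cell differentiation marker amount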 (primary screen)
Cell system: primary human epidermal keratinocytes
Reagent: siRNA pool against human genes, 1-2 µM siRNA in 20 µl nucleofection
Duration: 72 h after transfection plus 48 h differentiation (about 5 days)
Conditions: five arms for 48 h: vehicle, AG1478 10 µM, BMP2/7 200 ng/ml, both together, or 10% serum
Read-out: 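Per-cell amount of a differentiation marker read by infrared scanning of the plate, given as a z-score within each plate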
Scale: z-score, vehicle and z-score, AG1478 10 µM: higher = more differentiation marker per cell

{"gene": "AIRE", "z-score, vehicle": 0.684, "z-score, AG1478 10 µM": -1.27}
{"gene": "PRMT1", "z-score, vehicle": 1.29, "z-score, AG1478 10 µM": 1.17}
{"gene": "PRDM4", "z-score, vehicle": 0.135, "z-score, AG1478 10 µM": -0.159}
{"gene": "DNMT3A", "z-score, vehicle": -1.5, "z-score, AG1478 10 µM": -1.82}
{"gene": "EZH2", "z-score, vehicle": 1.85, "z-score, AG1478 10 µM": 0.997}
{"gene": "NCOA1", "z-score, vehicle": -1.23, "z-score, AG1478 10 µM": -0.572}
{"gene": "KMT2B", "z-score, vehicle": -0.616, "z-score, AG1478 10 µM": -0.121}

Ordered by “z-score, AG1478 10 µM” (highest first): 2 of the entries above.
{"gene": "EZH2", "z-score, vehicle": 1.85, "z-score, AG1478 10 µM": 0.997}
{"gene": "NCOA1", "z-score, vehicle": -1.23, "z-score, AG1478 10 µM": -0.572}

Next reagents follow.
{"gene": "RBBP4", "z-score, vehicle": -0.737, "z-score, AG1478 10 µM": -0.144}
{"gene": "INTS12", "z-score, vehicle": 0.258, "z-score, AG1478 10 µM": -0.388}
{"gene": "JADE1", "z-score, vehicle": 1.67, "z-score, AG1478 10 µM": 2.9}
{"gene": "BRCA1", "z-score, vehicle": -0.144, "z-score, AG1478 10 µM": 0.236}
{"gene": "CDY2A", "z-score, vehicle": -0.819, "z-score, AG1478 10 µM": -0.251}
